Experiment [1] has as its target T1, GFP-USP1 (full-length human ubiquitin-specific protease 1, wild type) (human) (UniProt O94782).
T1 sequence: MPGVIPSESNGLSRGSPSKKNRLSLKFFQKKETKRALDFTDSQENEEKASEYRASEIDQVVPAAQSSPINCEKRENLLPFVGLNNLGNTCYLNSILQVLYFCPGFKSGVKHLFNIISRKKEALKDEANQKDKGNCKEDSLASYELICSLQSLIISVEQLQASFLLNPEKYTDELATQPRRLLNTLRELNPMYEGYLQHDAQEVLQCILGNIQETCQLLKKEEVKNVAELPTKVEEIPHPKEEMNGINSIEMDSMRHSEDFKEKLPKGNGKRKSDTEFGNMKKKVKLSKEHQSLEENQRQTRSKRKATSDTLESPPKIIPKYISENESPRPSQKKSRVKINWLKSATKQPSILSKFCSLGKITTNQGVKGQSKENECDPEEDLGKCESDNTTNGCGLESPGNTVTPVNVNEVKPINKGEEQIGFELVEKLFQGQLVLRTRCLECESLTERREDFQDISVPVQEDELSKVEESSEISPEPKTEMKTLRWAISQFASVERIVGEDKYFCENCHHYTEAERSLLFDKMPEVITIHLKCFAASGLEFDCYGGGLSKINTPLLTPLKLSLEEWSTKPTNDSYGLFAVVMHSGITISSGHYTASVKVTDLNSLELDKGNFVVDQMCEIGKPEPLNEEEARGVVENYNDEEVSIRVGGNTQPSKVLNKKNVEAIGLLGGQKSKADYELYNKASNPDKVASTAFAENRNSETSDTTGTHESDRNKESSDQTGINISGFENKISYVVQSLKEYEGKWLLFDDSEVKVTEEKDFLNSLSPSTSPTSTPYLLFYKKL
The experiment is described as follows: co-IP; anti-GFP immunoprecipitation with GFP-Trap_M from co-transfected 293T cells; immunoblot with anti-GFP and anti-Xpress. For orientation: Immunoblotting shows a protein as a band on a membrane.

Amino acid sequences for entries named in this document (tags omitted).
UniProt Q8TAF3: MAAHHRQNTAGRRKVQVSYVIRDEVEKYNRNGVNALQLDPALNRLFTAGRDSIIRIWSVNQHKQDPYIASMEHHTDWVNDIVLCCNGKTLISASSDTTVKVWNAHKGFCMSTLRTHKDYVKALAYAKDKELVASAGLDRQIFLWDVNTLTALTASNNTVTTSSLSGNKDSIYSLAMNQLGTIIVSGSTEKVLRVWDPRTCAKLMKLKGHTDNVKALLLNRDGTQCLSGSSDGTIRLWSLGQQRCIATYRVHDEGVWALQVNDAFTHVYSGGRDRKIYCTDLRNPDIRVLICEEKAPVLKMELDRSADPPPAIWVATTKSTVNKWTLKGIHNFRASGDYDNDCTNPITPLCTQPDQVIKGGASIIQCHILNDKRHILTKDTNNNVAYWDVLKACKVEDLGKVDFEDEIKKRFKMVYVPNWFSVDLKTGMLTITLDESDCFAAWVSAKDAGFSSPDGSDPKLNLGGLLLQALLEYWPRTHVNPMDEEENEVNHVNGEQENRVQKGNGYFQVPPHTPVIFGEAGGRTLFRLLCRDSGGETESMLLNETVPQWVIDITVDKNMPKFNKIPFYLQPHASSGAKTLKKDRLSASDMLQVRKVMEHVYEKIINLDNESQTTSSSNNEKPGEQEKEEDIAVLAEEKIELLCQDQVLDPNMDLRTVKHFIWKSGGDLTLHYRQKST

The target in experiment [2] is T2, USP1 Del(420–520) (human) (UniProt O94782).
T2 sequence: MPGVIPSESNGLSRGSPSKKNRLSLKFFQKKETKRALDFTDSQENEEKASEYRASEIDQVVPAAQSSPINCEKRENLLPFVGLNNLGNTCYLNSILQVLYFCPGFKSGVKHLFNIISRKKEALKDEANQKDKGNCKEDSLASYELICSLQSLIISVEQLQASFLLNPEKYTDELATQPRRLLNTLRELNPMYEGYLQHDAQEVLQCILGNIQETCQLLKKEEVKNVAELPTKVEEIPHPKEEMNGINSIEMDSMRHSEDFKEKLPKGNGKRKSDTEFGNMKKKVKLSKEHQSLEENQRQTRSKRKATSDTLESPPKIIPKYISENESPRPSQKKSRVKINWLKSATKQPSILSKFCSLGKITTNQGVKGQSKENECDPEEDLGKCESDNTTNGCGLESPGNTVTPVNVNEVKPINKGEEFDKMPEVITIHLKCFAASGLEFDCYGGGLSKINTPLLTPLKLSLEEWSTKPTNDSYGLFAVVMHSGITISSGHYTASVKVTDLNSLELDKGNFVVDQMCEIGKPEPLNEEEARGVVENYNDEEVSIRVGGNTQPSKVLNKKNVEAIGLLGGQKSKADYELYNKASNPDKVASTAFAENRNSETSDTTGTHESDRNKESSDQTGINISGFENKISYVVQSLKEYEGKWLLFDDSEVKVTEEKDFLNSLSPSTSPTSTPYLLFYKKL
The experiment is described as above.

Drawing on PMC3368879, this text covers binding for 1 substance.

Results are given in words; binding and its absence hold for the method and conditions named. Binding seen in cells or lysates may run through a third protein. Some binding calls cover weakened binding; strength is not graded here. For some assays here: Where a sequence is shown, tags or fusion partners need not be part of it.

Turning to “Xpress-UAF1 (USP1-associated factor 1) (from UniProt Q8TAF3 1-677)”, the binding entry is “binds” in experiment [1] and “no binding” in experiment [2].
